PubChem BioAssay AID1259254 | NCATS – 2017

- Aim: 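Gene knock-downs that lead to re-replication, shown by excess G2 DNA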 (primary screen)
- Cells: human HCT116 colorectal cancer cells
- Reagents: single siRNA against human genes
- Duration: 3 days
- Measured: 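Imaged Hoechst DNA stain sorts each cell into a cycle phase by DNA amount; per plate, G2 fraction set to 0% for non-targeting and 100% for GMNN siRNA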
- Scale: G2 robust z-score and G2 cells, % of GMNN control: higher = more G2 cells, more excess DNA replication
- Active means: 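Active siRNAs have a G2 robust z of 5 or more median absolute deviations over the median, which in these data means about 38% or higher of GMNN control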
The deposit covers about 59,000 reagents; below is an unselected part. About 1,550 of all reagents (2.6%) were called active. 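G2 share is only a proxy for re-replication; each gene was hit by three separate siRNAs, and active genes were retested.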 Entries without a mark were called inactive. Reagents against one gene are numbered here. Further read-outs or replicates are left out here. Not stated in the record: the amount of reagent.

After knock-down of RMDN1 #1 the results were G2 robust z-score -0.438; G2 cells, % of GMNN control -0.117.
Knock-down of RMDN1 #2 gave: G2 robust z-score 7.12 (active); G2 cells, % of GMNN control 53.1.
Silencing of RMDN1 #3 resulted in: G2 robust z-score 0.524; G2 cells, % of GMNN control 6.65.
Silencing of OXSR1 #1 resulted in: G2 robust z-score 2.64; G2 cells, % of GMNN control 21.5.
Knock-down of OXSR1 #2 resulted in: G2 robust z-score -0.253; G2 cells, % of GMNN control 1.19.
Depletion of OXSR1 #3 gave: G2 robust z-score 0.261; G2 cells, % of GMNN control 4.81.
Knock-down of SSH1 #1 resulted in: G2 robust z-score 2.25; G2 cells, % of GMNN control 18.8.
Against SSH1 #2, the values are G2 robust z-score 2.28; G2 cells, % of GMNN control 19.
With knock-down of SSH1 #3, the screen gave G2 robust z-score 1.96; G2 cells, % of GMNN control 16.8.
STOX2 #1 scored G2 robust z-score 0.321; G2 cells, % of GMNN control 5.22.
STOX2 #2 scored G2 robust z-score -0.686; G2 cells, % of GMNN control -1.86.
Knock-down of STOX2 #3 came out at: G2 robust z-score 0.752; G2 cells, % of GMNN control 8.26.
Against ITSN2 #1, the values are G2 robust z-score 0.298; G2 cells, % of GMNN control 5.06.
With knock-down of ITSN2 #2, the screen gave G2 robust z-score -0.466; G2 cells, % of GMNN control -0.311.
ITSN2 #3 gave G2 robust z-score 2.27; G2 cells, % of GMNN control 19.
Against PDCD1LG2 #1, the entry reads G2 robust z-score -0.835; G2 cells, % of GMNN control -2.91.
After knock-down of PDCD1LG2 #2, the screen gave G2 robust z-score 0.949; G2 cells, % of GMNN control 9.65.
Against PDCD1LG2 #3 the deposit lists G2 robust z-score 2.92; G2 cells, % of GMNN control 23.5.
